# Primary screen of a compound library

Chains of the proteins cited; added tags and fusions are not shown.
UniProt E9BF75, entry or part of it: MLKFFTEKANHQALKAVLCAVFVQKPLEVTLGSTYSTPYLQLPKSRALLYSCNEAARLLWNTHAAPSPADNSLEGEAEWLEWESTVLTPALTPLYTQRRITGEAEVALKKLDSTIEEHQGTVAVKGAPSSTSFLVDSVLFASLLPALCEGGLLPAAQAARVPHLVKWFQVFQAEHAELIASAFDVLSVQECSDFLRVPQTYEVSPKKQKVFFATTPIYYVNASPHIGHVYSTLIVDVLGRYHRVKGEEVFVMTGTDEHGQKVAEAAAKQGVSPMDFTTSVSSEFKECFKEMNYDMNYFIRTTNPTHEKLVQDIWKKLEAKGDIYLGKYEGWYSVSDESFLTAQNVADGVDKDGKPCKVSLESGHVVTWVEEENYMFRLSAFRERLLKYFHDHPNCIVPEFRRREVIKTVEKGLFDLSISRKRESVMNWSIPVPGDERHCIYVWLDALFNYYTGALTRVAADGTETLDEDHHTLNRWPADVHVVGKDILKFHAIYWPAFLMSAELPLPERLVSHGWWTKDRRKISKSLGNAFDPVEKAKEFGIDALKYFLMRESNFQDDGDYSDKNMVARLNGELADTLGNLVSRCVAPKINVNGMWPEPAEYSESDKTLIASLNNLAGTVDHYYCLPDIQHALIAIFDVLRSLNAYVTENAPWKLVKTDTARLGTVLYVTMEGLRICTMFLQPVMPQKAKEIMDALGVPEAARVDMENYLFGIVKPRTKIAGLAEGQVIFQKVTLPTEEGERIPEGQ

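Methionyl-tRNA synthetase (putative), Leishmania donovani (UniProt E9BF75). Primary screen of methionyl-tRNA synthetase; the read-out is not stated. The test concentration is not given. The values are filed as inhibition. Size under these conditions: about 68,000 compounds, about 24 of them at 50% or above in at least one test.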

All values are in %. How 0% and 100% were set is not recorded. Most values in the screen are low, and negative values occur. Compounds were drawn at random from those tested, without regard to their results.

SMILES | inhibition
Cc1noc(C)c1CCC(=O)N1CCn2cccc2C1C (configuration not stated) | 7.914
CN(Cc1ccco1)Cc1ccccc1CNC(=O)c1ccc[nH]1 | 17.03
COc1cc(C)c(C(C)NC(=O)NCCCn2cncn2)cc1OC (configuration not stated) | 13.25
O=C(c1ccccn1)N1CCc2c(nc(-c3ccncc3)[nH]c2=O)C1 | 19.35
CC(C(=O)Nc1nccs1)N(C)Cc1cccc(C#N)c1 (configuration not stated) | 12.47
CN1CCN(c2ncnc3c2CCN(C(=O)c2cccn2C)CC3)CC1 | 1.099
Cc1ccc(N2CCC(C3CCN(CC(C)C)CC3)C2)nn1 (configuration not stated) | 9.045
Cc1nnc2n1CCN(CCOc1cccc(C#N)c1)C2 | 24.36
N#Cc1ccc(C(=O)N(C2CC2)C2CC(=O)NC2=O)cc1 (configuration not stated) | 26.36
O=C1CC2(CCN(C(=O)c3ccccn3)CC2)Oc2c(Br)cc(Br)cc21 | 6.389
Cc1cccc(-c2nc(C)nn2CC(=O)N(C)C2CC2)c1 | 11.74
CCC(C)NC(=O)NCc1cc2n(n1)CCCN(C1CCCCC1)C2 (configuration not stated) | 5.634
CN(C)c1ccc(C(=O)N2CCN(Cc3cscn3)CC2)cc1F | 14.29
Cc1ccccc1CN(CCN(C)C)Cc1ccc(O)c(C(=O)O)c1 | 3.069
COc1ncc(C(F)(F)F)c(C(=O)O)c1Cl | 0
Cc1ccc(CS(=O)(=O)N2CC[C@H]3[C@H]2CCN3C)cc1 | 17.5
O=C(CCCOc1ccc(F)cc1F)N1CCCC1Cn1cccn1 (configuration not stated) | 14.96
O=c1[nH]c2c(c(=O)n1C1CCCCC1)CCC2Nc1ccc(Cl)cc1 (configuration not stated) | 2.121
CCOc1ccc(CSC(C)c2nc(C)no2)nc1 (configuration not stated) | 11.64
Cc1cnn(CC2CCCN2c2ncnc3sccc23)c1 (configuration not stated) | 22.03
Cc1cc(C)n(C2CN(CC(O)Cn3cccn3)C2)n1 (configuration not stated) | 7.784
c1cc(COC[C@@H]2CCC[C@@]23CNCCO3)ccn1 | 3.03
Cc1cc2c(cc1C(=O)N1CC[C@H](CO)[C@@H](O)C1)OCCO2 | 14.81
N#CCCNC(=O)CN1CCC(c2cc3ccccc3[nH]2)CC1 | 9.946
O=C(c1ccc(=O)[nH]n1)N1CCCC(O)(CN2CCC(F)(F)CC2)CC1 (configuration not stated) | 8.924
Cc1nc2ccc(C(=O)N3C[C@@H](O)[C@H](N4CCCC4)C3)cc2[nH]1 | 18.01
Cc1ccn(CCC(=O)N2CCOC(c3nc(-c4cccs4)no3)C2)n1 (configuration not stated) | 13.64
O=C(NCCN1CCNCC1)c1nc2ccccc2c(=O)[nH]1 | 8.714
COc1c(CNC2CCC(O)CC2)c(C(C)C)nn1C (configuration not stated) | 17.04
CCCNC(=O)C1(Cc2cc(-c3ccccc3)no2)CCN(C(C)=O)C1 (configuration not stated) | 5.397
COCCN1CCc2nc(SCc3ccc(F)cc3)[nH]c(=O)c2C1 | 17.88
CCC[C@H]1CN(S(C)(=O)=O)C[C@@H]1NC(=O)Cc1ccc(OC)cc1 | 16.88
CC(C)C(=O)N1CCCC2(C1)CN(c1nncs1)CCO2 (configuration not stated) | 10.39
CCCc1cc(C(=O)N2CC(c3ccncc3)C2)ccn1 | 5.882
CCc1n[nH]c(C2CN(CCc3cccs3)CCO2)n1 (configuration not stated) | 11.11
CCn1nnc(NCc2ccccc2OCc2ccc(Cl)cc2)n1 | -22.74
O=C(O)C(c1ccc(Cl)c(F)c1)N1CCN(Cc2ccccn2)CC1 (configuration not stated) | 22.53
CC(C)c1cc(C(=O)N2CCN(c3cccc(C(=O)O)c3)CC2)n(C)n1 | 6.873
Cc1cnn(CC2CN(Cc3nc4ccccc4nc3C)CCO2)c1 (configuration not stated) | 16.67
CCNC(=O)N1CCN(c2nc3ccccc3n2C)CC1 | 13.52
Cc1sc2ccccc2c1S(=O)(=O)NCCNC(=O)C(C)C | 12.71
Cn1ncc2c1C(COCC1CC1)CN(Cc1ccsc1)C2 (configuration not stated) | 15.23
Cc1noc(C)c1CN1CCN(Cc2cccnc2)c2ncccc2C1 | 19.78
CC(Cc1cccs1)C(=O)NCc1cccc(N2CCCC2=O)c1 (configuration not stated) | 9.278
Cc1ccccc1C1CCN(C(=O)CCNC(=O)C(C)(C)C)C1 (configuration not stated) | 1.985
Cc1nccn1-c1ccc(=O)n(CCNC(=O)Cc2ccccc2)n1 | 19.78
Cn1nc(Br)c2c(=O)n(CCc3ccccc3)cnc21 | 9.317
COCC(=O)NC1CCCN(c2ccc(C)cc2)C1=O (configuration not stated) | 13.71
COc1ccc(C(=O)N2CCCC(n3nc(C)nc3C)C2)c(OC)c1 (configuration not stated) | 13.24
CS(=O)(=O)N1CCC2(CC1)CN(CC1CC1)CC21CCNC1=O (configuration not stated) | 8.889
CCc1nncn1CCNC(=O)N1CCN(Cc2ccccc2)CC1 | 7.182
COc1ccc(CNCc2c(C(C)C)nn(C)c2OC)cn1 | 18.58
CCCC1(CO)CCCN(Cc2ncccn2)C1 (configuration not stated) | 18.66
CNc1cc(C)nc(N2CCC3(CC2)[C@H](O)C[C@@H]3OCCO)n1 | 6.767
CN(C(=O)CN(Cc1cccc(O)c1)C1CCC(O)CC1)C1CC1 (configuration not stated) | 12.2
COCCN(CCOC)C(=O)c1c[nH]nc1-c1cccc(F)c1 | 11.67
CCOCC1CN(CCN2CCCCC2)Cc2cnn(C)c21 (configuration not stated) | 5.397
Cn1ccc(CN2CCC3(CC2)CC(Nc2cnccn2)CO3)n1 (configuration not stated) | 16.67
c1ccc(N2CCC(NCCc3ccc(-n4cccn4)cc3)CC2)nc1 | 3.966
CN(C)C(=O)[C@H]1C[C@H]2OCC[C@H]2N(CCOc2ccc(Cl)cc2)C1 | 9.278
Cc1nn(C(C)(C)C)c(C)c1C(=O)NCC1(C(N)=O)CCOCC1 | 12.5
O=C(c1ccc(Br)cc1F)N1CCc2ccncc21 | 4.482
CC(c1ccccn1)N(C)Cc1ccc(-n2ccnc2)cc1 (configuration not stated) | 13.32
CCc1nc(CN2CCCN(C(=O)C3CCOCC3)CC2)cs1 | 2.089
O=C(c1ccoc1)N1CCOCC2(CCN(Cc3cccs3)C2)C1 (configuration not stated) | 5.753
CC(C)OCc1ccccc1CNC(=O)C(C)(C)C | 5.444
CC(Cn1cccn1)NC(=O)N1CCN(Cc2cccnc2)CC1 (configuration not stated) | 10.1
COc1c(C2CCCN2C(=O)c2cnn(C)c2C2CC2)c(C)nn1C (configuration not stated) | 9.699
COCCN1CCC(CN(C)c2ncnc3c2c(C)nn3C)C1 (configuration not stated) | 7.419
CCc1nc(CN2CCOC(Cn3nc(C)cc3C)C2)no1 (configuration not stated) | 4.372
O=C(c1cccc(F)c1)N1CCC2(CC1)CN(c1ccccn1)CCO2 | 2
Cc1occc1C(=O)N1CCC2(CCC(=O)N(CC(N)=O)C2)CC1 | 7.965
CCOC(=O)CCNC(=O)c1cccc2ccc(C)nc12 | 17.69
NC1CCN(c2nccn3c(=O)[nH]nc23)CC1 | 0
CC(C)n1cnnc1CN(C)C(=O)c1cccnc1O | 3.75
Cc1cncc(C2CCN(Cc3ccc(S(C)(=O)=O)cc3)CC2)n1 | 11.63
N#Cc1ccnc(N2CCN(CC(O)c3ccccc3Cl)CC2)c1 (configuration not stated) | 16.1
CCNC(=O)N1C[C@@H]2OCC(=O)N(CC3CC3)[C@@H]2C1 | 9.023

The last 7 entries again:

SMILES	inhibition
Cc1occc1C(=O)N1CCC2(CCC(=O)N(CC(N)=O)C2)CC1	7.965
CCOC(=O)CCNC(=O)c1cccc2ccc(C)nc12	17.69
NC1CCN(c2nccn3c(=O)[nH]nc23)CC1	0
CC(C)n1cnnc1CN(C)C(=O)c1cccnc1O	3.75
Cc1cncc(C2CCN(Cc3ccc(S(C)(=O)=O)cc3)CC2)n1	11.63
N#Cc1ccnc(N2CCN(CC(O)c3ccccc3Cl)CC2)c1 (configuration not stated)	16.1
CCNC(=O)N1C[C@@H]2OCC(=O)N(CC3CC3)[C@@H]2C1	9.023

Data taken from ChEMBL document CHEMBL3988442, “University of Dundee, Small-Polar-MMV Screening Library” (2021).